For at least one entry, the source does not settle the construct or the ends of the probe.

Amino acid sequences for entries named in this document (tags omitted). A change or cut given only in a name is not applied to a line headed by its entry.
UniProt Q9P2D1: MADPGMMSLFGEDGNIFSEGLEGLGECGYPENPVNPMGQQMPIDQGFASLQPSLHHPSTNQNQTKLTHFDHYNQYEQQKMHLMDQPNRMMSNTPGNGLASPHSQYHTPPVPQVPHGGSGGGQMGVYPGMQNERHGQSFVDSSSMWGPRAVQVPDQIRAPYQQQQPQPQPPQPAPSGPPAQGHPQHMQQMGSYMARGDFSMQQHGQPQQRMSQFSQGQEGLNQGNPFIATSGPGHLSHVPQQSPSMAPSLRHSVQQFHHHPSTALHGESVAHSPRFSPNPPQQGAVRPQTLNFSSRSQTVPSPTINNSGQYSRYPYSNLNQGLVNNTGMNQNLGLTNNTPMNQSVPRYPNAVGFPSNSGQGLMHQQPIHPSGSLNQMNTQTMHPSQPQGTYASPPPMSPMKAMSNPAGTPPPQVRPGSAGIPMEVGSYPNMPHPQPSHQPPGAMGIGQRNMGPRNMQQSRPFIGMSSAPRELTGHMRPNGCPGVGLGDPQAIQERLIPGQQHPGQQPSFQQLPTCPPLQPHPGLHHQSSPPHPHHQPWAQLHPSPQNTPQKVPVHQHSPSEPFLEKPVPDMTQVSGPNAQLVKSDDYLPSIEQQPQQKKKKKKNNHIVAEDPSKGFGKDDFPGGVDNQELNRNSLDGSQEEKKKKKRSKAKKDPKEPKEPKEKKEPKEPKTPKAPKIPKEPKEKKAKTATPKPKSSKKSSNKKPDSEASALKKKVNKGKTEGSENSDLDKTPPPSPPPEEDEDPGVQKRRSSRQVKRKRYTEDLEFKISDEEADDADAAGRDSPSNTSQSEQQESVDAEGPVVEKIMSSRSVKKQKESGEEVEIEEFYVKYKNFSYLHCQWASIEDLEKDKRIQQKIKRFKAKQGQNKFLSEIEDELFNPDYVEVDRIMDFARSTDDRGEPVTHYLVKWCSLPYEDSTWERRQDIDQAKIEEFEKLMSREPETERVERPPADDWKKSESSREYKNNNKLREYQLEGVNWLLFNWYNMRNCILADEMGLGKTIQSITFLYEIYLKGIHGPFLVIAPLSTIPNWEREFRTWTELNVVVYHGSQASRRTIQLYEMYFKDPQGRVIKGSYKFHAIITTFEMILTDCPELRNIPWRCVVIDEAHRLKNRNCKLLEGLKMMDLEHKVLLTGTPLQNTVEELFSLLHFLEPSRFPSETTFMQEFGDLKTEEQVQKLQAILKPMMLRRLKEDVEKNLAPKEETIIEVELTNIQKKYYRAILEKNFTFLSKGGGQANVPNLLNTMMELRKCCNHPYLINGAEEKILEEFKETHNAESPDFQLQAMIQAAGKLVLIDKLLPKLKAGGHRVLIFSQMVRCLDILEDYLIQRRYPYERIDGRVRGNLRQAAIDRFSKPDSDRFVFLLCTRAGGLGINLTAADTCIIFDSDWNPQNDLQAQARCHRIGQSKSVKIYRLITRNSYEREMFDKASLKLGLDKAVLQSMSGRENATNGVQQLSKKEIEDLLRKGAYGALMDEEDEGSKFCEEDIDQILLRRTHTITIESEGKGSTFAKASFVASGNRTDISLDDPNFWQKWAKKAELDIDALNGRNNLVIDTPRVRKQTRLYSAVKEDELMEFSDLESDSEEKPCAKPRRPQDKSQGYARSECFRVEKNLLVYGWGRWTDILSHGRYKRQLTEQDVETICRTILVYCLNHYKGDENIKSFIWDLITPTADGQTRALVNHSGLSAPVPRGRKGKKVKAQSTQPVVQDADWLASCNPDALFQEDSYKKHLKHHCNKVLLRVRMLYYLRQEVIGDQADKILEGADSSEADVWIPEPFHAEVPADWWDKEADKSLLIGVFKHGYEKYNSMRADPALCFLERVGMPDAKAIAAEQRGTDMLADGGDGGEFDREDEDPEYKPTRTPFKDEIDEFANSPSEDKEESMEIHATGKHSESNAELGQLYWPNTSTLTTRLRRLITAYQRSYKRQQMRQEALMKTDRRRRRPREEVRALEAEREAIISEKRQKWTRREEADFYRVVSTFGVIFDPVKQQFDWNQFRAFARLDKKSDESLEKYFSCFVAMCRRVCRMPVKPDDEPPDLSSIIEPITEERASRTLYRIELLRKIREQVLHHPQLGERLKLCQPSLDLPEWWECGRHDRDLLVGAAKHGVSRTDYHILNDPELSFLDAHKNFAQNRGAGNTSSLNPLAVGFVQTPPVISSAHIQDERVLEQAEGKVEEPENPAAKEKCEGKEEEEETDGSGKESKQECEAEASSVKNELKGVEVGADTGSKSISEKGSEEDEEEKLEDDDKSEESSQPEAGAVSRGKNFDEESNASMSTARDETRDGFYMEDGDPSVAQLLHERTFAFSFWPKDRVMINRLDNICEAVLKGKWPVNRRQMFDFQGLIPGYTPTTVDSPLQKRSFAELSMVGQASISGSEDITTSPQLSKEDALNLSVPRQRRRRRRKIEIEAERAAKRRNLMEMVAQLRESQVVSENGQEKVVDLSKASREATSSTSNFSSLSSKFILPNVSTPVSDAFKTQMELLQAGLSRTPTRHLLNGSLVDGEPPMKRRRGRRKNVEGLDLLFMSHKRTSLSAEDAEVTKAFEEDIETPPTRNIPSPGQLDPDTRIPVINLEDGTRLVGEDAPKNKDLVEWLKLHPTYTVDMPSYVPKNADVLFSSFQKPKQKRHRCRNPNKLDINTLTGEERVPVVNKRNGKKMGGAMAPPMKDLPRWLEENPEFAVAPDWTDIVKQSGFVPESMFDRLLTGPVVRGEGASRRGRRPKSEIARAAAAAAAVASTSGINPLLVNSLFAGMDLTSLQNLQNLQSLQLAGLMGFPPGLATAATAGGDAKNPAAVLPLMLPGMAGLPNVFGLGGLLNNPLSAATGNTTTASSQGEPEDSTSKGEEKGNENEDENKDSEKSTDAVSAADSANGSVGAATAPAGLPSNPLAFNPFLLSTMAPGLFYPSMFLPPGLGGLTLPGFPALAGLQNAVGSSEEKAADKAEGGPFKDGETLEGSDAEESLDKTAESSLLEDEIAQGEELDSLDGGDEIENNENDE

The record followed here is paper PMC8548210.

The data set addresses CHD7 full-length (UniProt Q9P2D1). In words: EMSA. As to conditions: Kd between 7.7 and 13.1 nM, value only in figure; 20 mM Hepes pH 7.9, 10% glycerol, 150 mM KCl, 2.5 mM MgCl2, 1 mM DTT, 0.1 mg/ml BSA, RNasin Plus; 1 nM RNA; 30 min at RT; 0.7% agarose in 0.5x TBE; recombinant protein; residues 1-2997; protein details: FLAG and His dual tag (Ni-NTA then M2); label: Cy5-UTP (body); probe letters rebuilt from the primers and the genome; part of a longer …. In general terms: Mobility shift assays separate free from complexed probe on a gel.

For “CUUCAACUCACACCUGACCUAAAACCUAAAUGCCUUAUUUUCUUCUGCAAUGCCCCUUGACCCCAAUACAAACUCAAGAGUAGUUCCAAAUAGCCAGAAAAUGGCACUUUCAAUUUUUCCAUCCUGCAAGAUCUAAAUAAUUCUUGUUGUAAAAUAGGCAAAUGGUCUGAGGUGCAUGACAUCCAGGCAUUCUUUUACACAUUGGUCCCUUCCUAGUCUCUGUGCCCAAUGCAACUCAUCCCAAAUCCUCCUUCUUUCCCUCCCGCCUGUCCCCUCAGUCCCAACCCCAAGCAUCGCUGAGUCUUUCUAAUCUUCCUUUUCUACGGACCCAUCUGACCUCUCCCCUCCUCGCCAGGCCGAGCUAGGUCCCAAUUCUUCCUCAGCCUCCGCUCCUCCACCCUAUAAUCCUUUUAUCACCUCUCCUCCUCUCACCCAGUCCGGCUUACAGUUUCAUUCCGUGACUAGCCCUCCCCGACCUGCCCAGCAAUUUCCUCUUAAAAAGGUGGCUGAAACUAAAGGCAUAGUCAAGGUUAAUGCUCCUUUAUCUUUAUCAGAACUCUCCCAAAUCAGUGAGCAUUUAGGCUCUUUCAUCAAAUAUGAAAAACCCAGCCCAGUUCAUGGCUCAUUCAGCAGCAACCCUGAGACGCUUUACAGUCUUAGACCCUAAAAGAUUAAAAGGCCAUCUUAUUCUCAAUAUACAUUUUAUUACCCAUCCUGCUCCC [HERVH RNA segment S3]”, the binding result is on record as “binds”.
